Measurements: the supplement of paper PMC10727501
The list shows a part of the results. Single values are uncertain here, since repeats match poorly.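 Free-swimming zebrafish larvae were scored for O-bend response probability to dark flashes (naive: first five; training: remaining flashes of four 60-flash blocks; test: later 60-flash block) and for turning toward alternating leftward/rightward LED motion (OMR). Six treated larvae were compared with sixty 0.1% DMSO controls; |SSMD|≥2 defined a hit.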

What follows are molecules tested on Danio rerio larvae (5 dpf, TLF) (assay: Prob-Test (SSMD vs DMSO vehicle); higher = higher than vehicle (e.g. higher dark-flash O-bend response probability, or better optomotor performance)). Settings: 10 µM; pre-incubation: 30-90 min.

`NS(=O)(=O)Cc1noc2ccccc12` [Zonisamide] was tested. Which Prob-Test did it give?
The Prob-Test was 0.196.

`CNCC(O)c1ccc(O)c(O)c1` (racemic) [DL-Adrenaline] was tested. Which Prob-Test did it give?
Its Prob-Test is -0.0191.

For `Cc1cc(NC(=O)C2=C(O)c3ccccc3S(=O)(=O)N2C)no1` [Isoxicam], which Prob-Test is on record?
The Prob-Test was 0.0026.

Which Prob-Test does the source give for `Cl.O=C(c1ccc(OCCN2CCCCC2)cc1)c1c(-c2ccc(O)cc2)sc2cc(O)ccc12` [Raloxifene HCl] here?
Its Prob-Test is -0.204.

How did the Prob-Test turn out when `Cc1c(CN2CCN(C(=O)[C@H](C)O)CC2)sc2c(N3CCOCC3)nc(-c3cnc(N)nc3)nc12` was run?
The Prob-Test was 0.21.

For `CCNC(=O)c1noc(-c2cc(C(C)C)c(O)cc2O)c1-c1ccc(CN2CCOCC2)cc1`, which Prob-Test is on record?
The Prob-Test was -0.000572.

How did the Prob-Test turn out when `Cc1c(Cn2c(C)nc3c(C(=O)O)cc(N4CCOCC4)cc32)cccc1C(F)(F)F` was run?
The Prob-Test was 0.371.

Which Prob-Test does the source give for `Nc1cc(F)ccc1NC(=O)/C=C/c1cnn(C/C=C/c2ccccc2)c1` here?
Its Prob-Test is 0.083.

For `C[N+](C)(C)CCO.[Cl-]` [Choline Chloride], which Prob-Test is on record?
The Prob-Test was -0.477.

Each molecule was assayed on Danio rerio larvae (5 dpf, TLF) (assay: Prob-Naive (SSMD vs DMSO vehicle); higher = higher than vehicle (e.g. higher dark-flash O-bend response probability, or better optomotor performance)). Settings: 10 µM; pre-incubation: 30-90 min.

`CS(=O)(=O)O.Cn1cc(C2=C(c3cn(CCCSC(=N)N)c4ccccc34)C(=O)NC2=O)c2ccccc21` [Ro 31-8220 Mesylate] was tested. Which Prob-Naive did it give?
Its Prob-Naive is 0.135.

Which Prob-Naive does the source give for `C[C@@H]1CN(c2c(F)c(F)c3c(=O)c(C(=O)O)cn(C4CC4)c3c2F)C[C@@H](C)N1` [Orbifloxacin] here?
Its Prob-Naive is 0.298.

`[C@@H]1(C[C@@]2(N([C@@](C1)(CC2)[H])C)[H])OC(C(C3C=CC=CC=3)O)=O.Br` (some centres not stated) [Homatropine Bromide] was tested. Which Prob-Naive did it give?
Its Prob-Naive is -0.302.

How did the Prob-Naive turn out when `CCCCc1ncc(/C=C(\Cc2cccs2)C(=O)O)n1Cc1ccc(C(=O)O)cc1.CS(=O)(=O)O` [Eprosartan Mesylate] was run?
Its Prob-Naive is -0.284.

With `CCOC(=O)c1ccc(OC(=O)CCCCCNC(=N)N)cc1.CS(=O)(=O)O` [Gabexate Mesylate] as the molecule, how does the Prob-Naive read?
The Prob-Naive was 0.0404.

With `O=C(O)c1cc(=O)[nH]c(=O)[nH]1` [Orotic acid (6-Carboxyuracil)] as the molecule, how does the Prob-Naive read?
Its Prob-Naive is -0.0925.

For `Cc1cn([C@@H]2C[C@@H](O)[C@H](CO)O2)c(=O)[nH]c1=O` [Telbivudine], which Prob-Naive is on record?
The Prob-Naive was 0.112.

How did the Prob-Naive turn out when `C[C@@H]1O[C@@H](OC[C@H]2O[C@@H](Oc3c(-c4ccc(O)c(O)c4)oc4cc(O)cc(O)c4c3=O)[C@@H](O)[C@@H](O)[C@@H]2O)[C@@H](O)[C@H](O)[C@H]1O` [Rutin] was run?
Its Prob-Naive is 0.516.

With `CC(C)c1ccc(NC(=O)Cn2cnc3c2c(=O)n(C)c(=O)n3C)cc1` as the molecule, how does the Prob-Naive read?
Its Prob-Naive is 0.232.

With `NC(Cc1c[nH]c2ccc(O)cc12)C(=O)O` (configuration not stated) [5-hydroxytryptophan (5-HTP)] as the molecule, how does the Prob-Naive read?
Its Prob-Naive is -0.311.

Which Prob-Naive does the source give for `O=C(Nc1cc2cc[nH]c2cn1)c1ccccc1` here?
Its Prob-Naive is -0.0588.

`N#C/C(=C\c1ccc(O)c(O)c1)C(=O)NCc1ccccc1` [AG-490 (Tyrphostin B42)] was tested. Which Prob-Naive did it give?
Its Prob-Naive is -0.115.

Which Prob-Naive does the source give for `Cc1ccccc1CN1C2=NCCN2C(=O)C2=C1CCN(Cc1ccccc1)C2` here?
Its Prob-Naive is 0.0457.

With `CN(C)CCCNC(=O)c1ccc(-c2cc(O)c3ncccc3c2)cc1` as the molecule, how does the Prob-Naive read?
Its Prob-Naive is -0.0534.

How did the Prob-Naive turn out when `CC(=O)c1c(C)c2cnc(Nc3ccc(N4CCNCC4)cn3)nc2n(C2CCCC2)c1=O.O=S(=O)(O)CCO` was run?
The Prob-Naive was -0.239.

Which Prob-Naive does the source give for `O=C(NOC[C@H](O)CO)c1ccc(F)c(F)c1Nc1ccc(I)cc1F` here?
Its Prob-Naive is -0.19.

For `CC(C)(C#N)c1ccc(N2C(=O)OCc3cnc4ccc(-c5cnc6ccccc6c5)cc4c32)cc1`, which Prob-Naive is on record?
Its Prob-Naive is -0.102.

For `NC(=O)c1ccc(N(C(N)=O)c2c(F)cccc2F)nc1-c1ccc(F)cc1F`, which Prob-Naive is on record?
The Prob-Naive was 0.319.

With `COc1cc(Nc2c(C#N)cnc3cc(OCCCN4CCN(C)CC4)c(OC)cc23)c(Cl)cc1Cl` [Bosutinib (SKI-606)] as the molecule, how does the Prob-Naive read?
The Prob-Naive was -0.076.

For `CCC[C@@H]1C[C@@H](C(=O)N[C@@H](C(C)Cl)[C@H]2O[C@@H](SC)[C@H](O)[C@@H](O)[C@H]2O)N(C)C1.Cl` (some centres not stated) [Clindamycin HCl], which Prob-Naive is on record?
Its Prob-Naive is 0.208.

How did the Prob-Naive turn out when `C[C@H]1CCN(C(=O)CC#N)C[C@@H]1N(C)c1ncnc2[nH]ccc12.O=C(O)CC(O)(CC(=O)O)C(=O)O` was run?
Its Prob-Naive is 0.145.

For `CN/C(=C/[N+](=O)[O-])NCCSCc1csc(CN(C)C)n1` [Nizatidine], which Prob-Naive is on record?
The Prob-Naive was -0.027.

With `CC(=O)NCC(=O)O.CC(=O)NCC(=O)O.N=C(N)c1ccc(/N=N/Nc2ccc(C(=N)N)cc2)cc1` [Diminazene Aceturate] as the molecule, how does the Prob-Naive read?
The Prob-Naive was 0.241.
